According to PubChem BioAssay AID1471 (National Center for Advancing Translational Sciences (NCATS), 2008):
Hit rate of the full screen: of about 230,000 compounds, about 310 (0.13%) were called active. The inconclusive results got no clear call from the source; some entries with a clear call stand among them for comparison. The call rests on the fitted dose curve; in most records, active means well fitted activation curve with a large enough effect; inconclusive means small, poorly fitted or top-dose-only effect; inactive means no such curve, though single readings can be large or run the other way. A potency beside an inconclusive call is a rough fit, not a confirmed value.

assay: qHTS Multiplex Assay to Identify Dual Action Probes in a Cell Model of Huntington: Cytoprotection (ATP); conditions: PC12 HTT-Q103 induced, ATP luminescence, 40 h; cytoprotection (ATP increase): at 56.4 µM (top of the series) unless noted; further: nearly all actives have a fitted effect of over 45% in size;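 on cytoprotection (ATP increase): toxic huntingtin expression switched on by the ecdysone agonist tebufenozide; % of control where 0% means no effect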
Summary of the method: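 Stable PC12 Q103-GFP cells in serum-supplemented, phenol red-free DMEM; induction by tebufenozide at 100 nM final; compound dose series; cell viability quantified luminescently from ATP.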
Potency means the concentration at half of the fitted maximal effect.

Question: With `Clc1ccc(CN2CCCCCCC2)cc1Cl` as the compound, how does the Potency read?
Answer: inconclusive: 3550 nM [activator, single point]

Question: Which Potency does the source give for `CCc1cc(C(N)=S)ccn1` here?
Answer: inconclusive: 355 nM [activator, full curve, poor fit]

Question: With `CCCn1cc(CN2CCCC(C(=O)c3cccc(OC(C)C)c3)C2)c(C)n1` (stereo not drawn) as the compound, how does the Potency read?
Answer: inconclusive: 891 nM [activator, single point]

Question: Which Potency does the source give for `O=C(NC1CCCCCC1)c1ccc2nc3cc(Cl)ccc3c(=O)n2c1` here?
Answer: inconclusive: 4470 nM [activator, partial curve, poor fit]

Question: For `O=C(O)/C=C/c1ccc(OCCCF)cc1`, which Potency is on record?
Answer: inconclusive: 1120 nM [activator, single point]

Question: For `CC(C)NC(=O)CN1CCC(c2ccccc2)C(O)C1` (stereo not drawn), which Potency is on record?
Answer: inconclusive: 5620 nM [activator, single point]

Question: With `Cc1cc(C)n2nc(C(=O)OCC(=O)c3c[nH]c4ccccc34)nc2n1` as the compound, how does the Potency read?
Answer: inconclusive: 1580 nM [activator, partial curve, poor fit]

Question: For `CC(C)CC1NC(=O)N(Cc2cc(=O)n3ccsc3n2)C1=O` (stereo not drawn), which Potency is on record?
Answer: inconclusive: 1000 nM [activator, single point]

Question: With `CCOP(=O)(OCC)C(Nc1ccc([N+](=O)[O-])cc1)c1ccc(Cl)cc1` (stereo not drawn) as the compound, how does the Potency read?
Answer: inconclusive: 562 nM [activator, single point]

Question: For `C[C@H](CCC(=O)O)[C@H]1CC[C@@H]2[C@H]3CC[C@H]4C[C@H](O)CC[C@]4(C)[C@@H]3CC[C@@]21C`, which Potency is on record?
Answer: inconclusive: 562 nM [activator, single point]

Question: With `c1ccc(N2N=C(c3cccs3)CC2c2ccco2)cc1` (stereo not drawn) as the compound, how does the Potency read?
Answer: inconclusive: 447 nM [activator, partial curve]

Question: With `Cc1ccc(Cn2c(Sc3nnc(C)s3)nc3c2c(=O)[nH]c(=O)n3C)cc1` as the compound, how does the Potency read?
Answer: inconclusive: 1260 nM [activator, single point]

Question: With `CC1CN(c2c(F)c(N)c3c(=O)c(C(=O)O)cn(C4CC4)c3c2F)CC(C)N1` (stereo not drawn) as the compound, how does the Potency read?
Answer: inconclusive: 794 nM [activator, full curve, poor fit]

Question: Which Potency does the source give for `O=C(NN1C(=O)C2C3C=CC(O3)C2C1=O)c1cccc(Br)c1` (stereo not drawn) here?
Answer: inconclusive: 708 nM [activator, full curve, poor fit]

Question: Which Potency does the source give for `Cc1ccc(NC(=O)N(Cc2nc3ccccc3c(=O)[nH]2)Cc2cccs2)cc1` here?
Answer: inconclusive: 316 nM [activator, partial curve]

Question: For `O=C(C1=C(O)C(=O)N(CC2CCCO2)C1c1cccnc1)c1ccco1` (stereo not drawn), which cytoprotection (ATP increase) is on record?
Answer: inactive: -12% [at 10 µM]

Question: With `COc1cccc(NC(=S)C(C#N)=C2N(C)c3ccccc3N2C)c1` as the compound, how does the Potency read?
Answer: inconclusive: 5620 nM [activator, single point]

Question: For `COc1ccc(N(C)S(=O)(=O)c2ccc(Cl)c(C(=O)NCCc3ccc(Cl)cc3)c2)cc1`, which cytoprotection (ATP increase) is on record?
Answer: inactive: 1.41% [at 10 µM]

Question: Which “cytoprotection (ATP increase)” value does the source give for `COc1ccc(C(=O)N2CC(=O)N(CCc3ccccc3)C(=O)C2)cc1OC` here?
Answer: inactive: -17.8%

Question: Which Potency does the source give for `O=C(c1nc2ccccn2c1CNCCCn1nnc2ccccc21)N1CCOCC1` here?
Answer: inconclusive: 1260 nM [activator, single point]

Question: With `COc1ccc(N/N=C(\C#N)C(=N)SCc2ccccc2)cc1` as the compound, how does the Potency read?
Answer: inconclusive: 35500 nM [activator, single point]

Question: Which cytoprotection (ATP increase) does the source give for `COc1cc2c(cc1OC)/C(=C/C(=O)N1CCOCC1)NC(C)(C)C2` here?
Answer: inactive: -14.6% [at 10 µM]

Question: Which Potency does the source give for `Cn1ncc(Br)c1C(=O)Nc1ccc(F)cc1F` here?
Answer: inconclusive: 794 nM [activator, single point]

Question: With `COc1cc(/C=C(\NC(=O)c2ccccc2)C(=O)N2CC3CC(C2)c2cccc(=O)n2C3)cc(OC)c1OC` (stereo not drawn) as the compound, how does the cytoprotection (ATP increase) read?
Answer: inactive: 1.52% [at 10 µM]

Question: With `Nn1c(Cc2cccc3ccccc23)n[nH]c1=S` as the compound, how does the “cytoprotection (ATP increase)” value read?
Answer: inactive: -33.5%

Question: Which cytoprotection (ATP increase) does the source give for `Cc1ccc(Nc2cc(C)c3c(O)cccc3n2)cc1C` here?
Answer: inactive: -10.5% [at 10 µM]

Question: For `O=[N+]([O-])c1c(Cl)cc(Cl)cc1Cl`, which Potency is on record?
Answer: inconclusive: 25100 nM [activator, single point]

Question: Which Potency does the source give for `CCNc1ccc(C(=O)OCC(=O)NCCN2C(=O)CSC2=O)cc1[N+](=O)[O-]` here?
Answer: inconclusive: 1120 nM [activator, single point]

Question: For `COc1ccc(C2C(C(=O)c3sc(C)nc3C)=C(O)C(=O)N2CCN(C)C)cc1OC` (stereo not drawn), which cytoprotection (ATP increase) is on record?
Answer: inactive: -2.45% [at 10 µM]

Question: With `CCOC(=O)OCC1OC(CCc2ccccc2)CCC1Oc1ccc(OC)cc1` (stereo not drawn) as the compound, how does the Potency read?
Answer: inconclusive: 100 nM [activator, full curve, poor fit]

Question: With `CC1(OC(=O)c2cccs2)C(=O)C=C2C=C(C3CC3)OC=C2C1=O` (stereo not drawn) as the compound, how does the Potency read?
Answer: inconclusive: 11200 nM [activator, partial curve, poor fit]

Question: Which Potency does the source give for `S=c1[nH]nc(-c2ccco2)n1-c1ccccc1Cl` here?
Answer: inconclusive: 5620 nM [activator, single point]

Question: Which Potency does the source give for `O=C(O)c1ccc(Nc2cc(Cl)c3nonc3c2[N+](=O)[O-])cc1` here?
Answer: inconclusive: 15800 nM [activator, single point]

Question: Which Potency does the source give for `CCn1c(CN2C(=O)CSc3ccccc32)n[nH]c1=S` here?
Answer: inconclusive: 1260 nM [activator, single point]

Question: For `CSc1cccc(NC(=O)Nc2ccc(Cl)cc2)c1`, which Potency is on record?
Answer: inconclusive: 31600 nM [activator, single point]

Question: For `CC(C)(C)c1cc(C(=O)/C=C/c2ccc(C(=O)O)cc2)cc(C(C)(C)C)c1`, which Potency is on record?
Answer: active: 2510 nM

Question: Which “cytoprotection (ATP increase)” value does the source give for `O=C(O)C1C2C=CC(C2)C1C(=O)NCc1ccccn1` (stereo not drawn) here?
Answer: inactive: -3.1%

Question: For `O=C(O)c1ccccc1-c1nc(-c2ccccc2)c(-c2ccccc2)[nH]1`, which Potency is on record?
Answer: inconclusive: 1260 nM [activator, single point]

Question: For `COc1ccccc1NC(=S)N(Cc1ccco1)Cc1cc2cc(C)cc(C)c2[nH]c1=O`, which cytoprotection (ATP increase) is on record?
Answer: inactive: -12.2% [at 10 µM]

Question: Which Potency does the source give for `COc1cc(C(=O)N2CCOCC2)cc(OC)c1OC` here?
Answer: inconclusive: 199 nM [activator, full curve]

Question: Which Potency does the source give for `CNCC[C@H](Oc1ccc(C(F)(F)F)cc1)c1ccccc1` here?
Answer: inconclusive: 355 nM [activator, full curve]

Question: For `Cn1c(CN2CCCC2)nc2cc(NC(=O)C3CCCCC3)ccc21`, which Potency is on record?
Answer: inconclusive: 35500 nM [activator, single point]

Question: For `Cn1c(N)c(C(=O)COC(=O)CCCOc2ccc(Cl)cc2Cl)c(=O)n(C)c1=O`, which Potency is on record?
Answer: inconclusive: 11.2 nM [activator, full curve, poor fit]

Question: Which Potency does the source give for `CCOC(=O)c1cc(-c2ccccc2)sc1NC(=O)C(C)N1C(=O)NC(C)(c2ccc(Cl)cc2)C1=O` (stereo not drawn) here?
Answer: inconclusive: 2820 nM [activator, partial curve]

Question: With `Cc1cc(C(F)(F)F)nc(SCC(=O)Nc2cc(C)on2)n1` as the compound, how does the “cytoprotection (ATP increase)” value read?
Answer: inactive: -9.9%

Question: Which Potency does the source give for `COc1ccc(C(=O)N2CCn3c(C)ccc3C2C)cc1` (stereo not drawn) here?
Answer: inconclusive: 35500 nM [activator, single point]

Question: For `O=c1c2c(nc3c(-c4ccccc4)c[nH]n13)CCC2`, which “cytoprotection (ATP increase)” value is on record?
Answer: inactive: -22.9%

Question: Which Potency does the source give for `CCOc1ccc(C2=NNC(c3cccs3)=Nc3ccc(OC)cc32)cc1` here?
Answer: inconclusive: 1260 nM [activator, single point]

Question: Which Potency does the source give for `O=S(=O)(NC1CCN(Cc2ccccc2)CC1)c1ccc(Cl)cc1` here?
Answer: inconclusive: 5620 nM [activator, single point]

Question: With `CC(C)OC(=O)c1c(NC(=O)c2ccco2)sc2c1CCCCC2` as the compound, how does the Potency read?
Answer: inconclusive: 3550 nM [activator, single point]

Question: For `COCC(=O)N1CCC[C@@]2(CCN(C(=O)Nc3ccc(OC)cc3)C2)C1`, which Potency is on record?
Answer: inconclusive: 5620 nM [activator, single point]

Question: With `Cc1ccc(SC(C)C(=O)NCc2ccncc2)cc1` (stereo not drawn) as the compound, how does the cytoprotection (ATP increase) read?
Answer: inactive: -17.1% [at 10 µM]

Question: With `C/C(=N\N1C(=O)CSC1=S)c1ccc(Br)cc1` as the compound, how does the Potency read?
Answer: inconclusive: 4470 nM [activator, single point]

Question: For `O=C(O/N=C1/CCSc2ccccc21)c1ccccc1`, which “cytoprotection (ATP increase)” value is on record?
Answer: inactive: 9.34%

Question: Which Potency does the source give for `COc1ccc(CCCC(=O)N/N=C/c2ccccc2OC)cc1` here?
Answer: inconclusive: 562 nM [activator, single point]

Question: Which Potency does the source give for `O=C(c1ccc(S(=O)(=O)NCC2CCCO2)cc1)N1CCc2ccccc21` (stereo not drawn) here?
Answer: inconclusive: 35500 nM [activator, single point]

Question: Which Potency does the source give for `COC(=O)/C=C1\S/C(=N\N=C\CC(=O)OC)NC1=O` here?
Answer: inconclusive: 2510 nM [activator, single point]

Question: Which Potency does the source give for `O=C(/C=C/c1ccccc1[N+](=O)[O-])N1CCN(C(=O)c2ccco2)CC1` here?
Answer: inconclusive: 562 nM [activator, single point]

Question: With `Clc1ccccc1-c1cncnc1NCCN1CCOCC1` as the compound, how does the “cytoprotection (ATP increase)” value read?
Answer: inactive: -117%

Question: With `O=C(Nc1nc2nccc(-c3ccccc3)n2n1)C(Cl)(Cl)Cl` as the compound, how does the cytoprotection (ATP increase) read?
Answer: inactive: 19.8% [at 10 µM]

Question: Which Potency does the source give for `CCOC(=O)Cc1c(Sc2ccccc2)c2ccccc2n1C` here?
Answer: inconclusive: 1260 nM [activator, single point]

Question: With `Cc1ccc(C)n1-c1ncn[nH]1` as the compound, how does the “cytoprotection (ATP increase)” value read?
Answer: inactive: 1.42%

Question: Which “cytoprotection (ATP increase)” value does the source give for `Cc1ccc(OCCn2cc(Br)c(=O)[nH]c2=O)cc1` here?
Answer: inactive: -0.789%

Question: Which cytoprotection (ATP increase) does the source give for `Oc1ccc(Nc2ncnc3scc(-c4ccccc4)c23)cc1` here?
Answer: inactive: -7.74% [at 10 µM]

Question: Which Potency does the source give for `COCCn1c(=O)c(-c2cn(C)c3ccccc23)nc2cnc(Oc3ccccc3)nc21` here?
Answer: inconclusive: 39800 nM [activator, single point]

Question: With `COC(=O)N1[C@H](C)C=C[C@]1(Cc1ccccc1)C(=O)NCc1ccc(C)o1` as the compound, how does the Potency read?
Answer: inconclusive: 14100 nM [activator, single point]

Question: For `CCN(c1cccc(C)c1)S(=O)(=O)c1ccc(OC)c([N+](=O)[O-])c1`, which cytoprotection (ATP increase) is on record?
Answer: inactive: 2.25% [at 10 µM]

Question: For `COc1cccc(NC2C=CS(=O)(=O)C2)c1` (stereo not drawn), which cytoprotection (ATP increase) is on record?
Answer: inactive: -1.92% [at 10 µM]
